For at least one compound, name, drawing or mass did not settle the structure.
Test system: Candida albicans
Assay: antifungal activity, agar plate dilution method with paper disk
Type: cell-based
Conditions: product isolated from the fermentation broth of Example 1
Experimental: Antifungal activity was determined by an agar plate dilution method using a fungal culture, Candida albicans. The diameter of inhibition zone of rapamycin was 25 mm when tested at 40 µg/disk (8 mm diameter paper disk, Advantic) on an commercially available agar medium for neomycin assay (Difco).

Compound: CO[C@H]1C[C@@H]2CC[C@@H](C)[C@@](O)(O2)C(=O)C(=O)N2CCCC[C@H]2C(=O)O[C@H]([C@H](C)C[C@@H]2CC[C@@H](O)[C@H](OC)C2)CC(=O)[C@H](C)/C=C(\C)[C@@H](O)[C@@H](OC)C(=O)[C@H](C)C[C@H](C)/C=C/C=C/C=C/1C [rapamycin]
- anti-Candida albicans activity: showed anti-Candida albicans activity
